Assay results as given in the supplement of paper PMC10849652.
The list shows a part of the results.

Protein sequences, listed by entry. Tags and fused reporters are not part of them. Lines headed by an entry give the natural chain unless they say otherwise; changes in a name come on top.
UniProt Q9H7P9: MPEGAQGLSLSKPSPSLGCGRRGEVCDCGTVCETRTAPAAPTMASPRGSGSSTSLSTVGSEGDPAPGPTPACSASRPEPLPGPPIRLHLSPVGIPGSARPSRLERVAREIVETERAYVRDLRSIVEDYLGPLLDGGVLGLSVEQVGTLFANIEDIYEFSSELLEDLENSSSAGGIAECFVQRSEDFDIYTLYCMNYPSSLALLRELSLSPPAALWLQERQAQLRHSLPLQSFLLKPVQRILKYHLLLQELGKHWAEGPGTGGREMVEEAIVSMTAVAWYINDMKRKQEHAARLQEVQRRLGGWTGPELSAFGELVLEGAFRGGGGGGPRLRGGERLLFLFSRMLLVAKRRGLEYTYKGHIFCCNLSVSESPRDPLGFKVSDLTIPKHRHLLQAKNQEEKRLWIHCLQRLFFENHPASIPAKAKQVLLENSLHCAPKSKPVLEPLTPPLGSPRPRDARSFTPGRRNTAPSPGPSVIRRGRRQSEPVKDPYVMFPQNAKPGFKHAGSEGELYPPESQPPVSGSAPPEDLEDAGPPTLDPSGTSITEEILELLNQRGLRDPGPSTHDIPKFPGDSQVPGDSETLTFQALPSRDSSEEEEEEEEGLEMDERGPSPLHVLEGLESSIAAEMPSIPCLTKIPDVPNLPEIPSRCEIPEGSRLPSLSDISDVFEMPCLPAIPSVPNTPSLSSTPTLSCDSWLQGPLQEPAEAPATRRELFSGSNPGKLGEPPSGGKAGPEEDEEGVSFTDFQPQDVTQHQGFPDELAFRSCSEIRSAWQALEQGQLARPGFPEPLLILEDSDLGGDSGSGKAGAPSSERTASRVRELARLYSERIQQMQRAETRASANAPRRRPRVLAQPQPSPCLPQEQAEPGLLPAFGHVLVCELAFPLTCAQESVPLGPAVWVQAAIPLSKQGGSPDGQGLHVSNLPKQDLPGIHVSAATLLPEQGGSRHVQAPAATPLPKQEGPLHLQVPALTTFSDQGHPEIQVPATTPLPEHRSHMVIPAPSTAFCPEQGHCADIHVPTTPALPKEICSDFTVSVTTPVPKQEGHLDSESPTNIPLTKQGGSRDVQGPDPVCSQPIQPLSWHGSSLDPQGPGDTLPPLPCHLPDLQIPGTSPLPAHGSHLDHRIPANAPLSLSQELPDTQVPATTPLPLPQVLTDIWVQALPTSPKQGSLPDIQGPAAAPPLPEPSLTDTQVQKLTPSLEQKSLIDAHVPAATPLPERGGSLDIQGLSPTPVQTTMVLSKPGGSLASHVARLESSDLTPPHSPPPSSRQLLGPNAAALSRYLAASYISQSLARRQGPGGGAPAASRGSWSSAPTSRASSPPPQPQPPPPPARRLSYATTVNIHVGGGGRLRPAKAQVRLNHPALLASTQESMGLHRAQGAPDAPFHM
UniProt P51805: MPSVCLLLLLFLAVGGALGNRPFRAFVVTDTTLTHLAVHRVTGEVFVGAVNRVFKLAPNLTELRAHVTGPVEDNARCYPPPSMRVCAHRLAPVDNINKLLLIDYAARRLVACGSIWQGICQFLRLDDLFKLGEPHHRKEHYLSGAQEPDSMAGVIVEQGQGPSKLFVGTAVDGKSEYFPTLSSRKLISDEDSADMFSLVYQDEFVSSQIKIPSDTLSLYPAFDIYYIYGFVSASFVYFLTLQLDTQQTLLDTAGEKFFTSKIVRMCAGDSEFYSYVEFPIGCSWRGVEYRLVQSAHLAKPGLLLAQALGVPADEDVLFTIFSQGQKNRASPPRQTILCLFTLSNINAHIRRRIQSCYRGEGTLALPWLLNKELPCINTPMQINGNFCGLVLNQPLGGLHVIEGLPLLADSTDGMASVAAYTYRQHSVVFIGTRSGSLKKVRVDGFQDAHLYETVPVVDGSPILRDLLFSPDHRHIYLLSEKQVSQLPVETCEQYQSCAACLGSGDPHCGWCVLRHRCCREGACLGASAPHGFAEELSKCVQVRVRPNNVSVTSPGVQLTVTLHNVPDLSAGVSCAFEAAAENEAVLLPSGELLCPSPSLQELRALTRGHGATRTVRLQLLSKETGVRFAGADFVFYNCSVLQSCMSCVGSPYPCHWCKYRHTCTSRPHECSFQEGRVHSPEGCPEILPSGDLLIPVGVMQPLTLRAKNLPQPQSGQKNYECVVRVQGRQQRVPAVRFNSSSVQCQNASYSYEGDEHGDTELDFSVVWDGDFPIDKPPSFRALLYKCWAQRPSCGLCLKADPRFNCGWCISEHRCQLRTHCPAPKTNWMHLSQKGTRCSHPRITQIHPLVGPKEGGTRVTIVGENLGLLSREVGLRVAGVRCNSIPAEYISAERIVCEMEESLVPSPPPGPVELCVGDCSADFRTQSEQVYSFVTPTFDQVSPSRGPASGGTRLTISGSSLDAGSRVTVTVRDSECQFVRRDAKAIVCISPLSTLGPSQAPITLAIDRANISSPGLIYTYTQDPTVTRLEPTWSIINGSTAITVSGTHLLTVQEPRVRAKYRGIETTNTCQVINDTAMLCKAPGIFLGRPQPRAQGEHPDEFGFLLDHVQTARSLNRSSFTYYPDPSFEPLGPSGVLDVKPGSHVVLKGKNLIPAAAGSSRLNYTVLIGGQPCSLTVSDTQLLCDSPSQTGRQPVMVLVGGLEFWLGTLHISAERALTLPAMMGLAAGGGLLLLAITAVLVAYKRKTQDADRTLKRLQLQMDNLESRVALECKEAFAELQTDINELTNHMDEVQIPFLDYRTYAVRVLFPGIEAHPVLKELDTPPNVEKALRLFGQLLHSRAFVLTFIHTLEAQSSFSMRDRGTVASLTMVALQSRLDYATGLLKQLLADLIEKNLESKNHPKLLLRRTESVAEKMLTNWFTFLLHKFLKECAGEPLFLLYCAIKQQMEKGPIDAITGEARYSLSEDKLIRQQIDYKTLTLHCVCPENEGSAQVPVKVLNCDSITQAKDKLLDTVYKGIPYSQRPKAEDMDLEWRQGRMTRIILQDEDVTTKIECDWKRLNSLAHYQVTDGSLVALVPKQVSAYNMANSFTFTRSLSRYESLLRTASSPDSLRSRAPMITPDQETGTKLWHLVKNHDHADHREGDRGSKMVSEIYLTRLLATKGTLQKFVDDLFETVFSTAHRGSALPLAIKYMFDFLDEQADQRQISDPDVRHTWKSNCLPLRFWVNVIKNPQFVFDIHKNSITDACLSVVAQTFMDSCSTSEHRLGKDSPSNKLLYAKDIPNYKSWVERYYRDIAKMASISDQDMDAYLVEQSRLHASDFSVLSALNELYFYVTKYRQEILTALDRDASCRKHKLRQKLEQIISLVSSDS
UniProt Q8WVV4: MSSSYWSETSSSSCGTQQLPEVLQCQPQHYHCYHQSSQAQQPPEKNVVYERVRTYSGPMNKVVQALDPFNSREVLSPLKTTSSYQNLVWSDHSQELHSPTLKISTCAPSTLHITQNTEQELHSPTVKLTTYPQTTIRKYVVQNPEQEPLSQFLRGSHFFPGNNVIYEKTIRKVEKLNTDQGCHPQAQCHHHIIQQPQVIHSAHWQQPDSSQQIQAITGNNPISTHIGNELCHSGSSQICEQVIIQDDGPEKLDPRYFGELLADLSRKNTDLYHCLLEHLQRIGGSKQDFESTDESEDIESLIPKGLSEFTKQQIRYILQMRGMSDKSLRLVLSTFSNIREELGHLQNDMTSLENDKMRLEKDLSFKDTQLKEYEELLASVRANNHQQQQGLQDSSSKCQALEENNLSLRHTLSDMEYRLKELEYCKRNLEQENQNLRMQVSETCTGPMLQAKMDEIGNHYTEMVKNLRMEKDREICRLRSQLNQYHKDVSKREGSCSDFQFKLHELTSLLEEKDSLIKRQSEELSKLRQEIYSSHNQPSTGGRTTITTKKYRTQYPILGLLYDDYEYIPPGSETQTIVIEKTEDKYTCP
UniProt A8CG34, whole entry, looked up: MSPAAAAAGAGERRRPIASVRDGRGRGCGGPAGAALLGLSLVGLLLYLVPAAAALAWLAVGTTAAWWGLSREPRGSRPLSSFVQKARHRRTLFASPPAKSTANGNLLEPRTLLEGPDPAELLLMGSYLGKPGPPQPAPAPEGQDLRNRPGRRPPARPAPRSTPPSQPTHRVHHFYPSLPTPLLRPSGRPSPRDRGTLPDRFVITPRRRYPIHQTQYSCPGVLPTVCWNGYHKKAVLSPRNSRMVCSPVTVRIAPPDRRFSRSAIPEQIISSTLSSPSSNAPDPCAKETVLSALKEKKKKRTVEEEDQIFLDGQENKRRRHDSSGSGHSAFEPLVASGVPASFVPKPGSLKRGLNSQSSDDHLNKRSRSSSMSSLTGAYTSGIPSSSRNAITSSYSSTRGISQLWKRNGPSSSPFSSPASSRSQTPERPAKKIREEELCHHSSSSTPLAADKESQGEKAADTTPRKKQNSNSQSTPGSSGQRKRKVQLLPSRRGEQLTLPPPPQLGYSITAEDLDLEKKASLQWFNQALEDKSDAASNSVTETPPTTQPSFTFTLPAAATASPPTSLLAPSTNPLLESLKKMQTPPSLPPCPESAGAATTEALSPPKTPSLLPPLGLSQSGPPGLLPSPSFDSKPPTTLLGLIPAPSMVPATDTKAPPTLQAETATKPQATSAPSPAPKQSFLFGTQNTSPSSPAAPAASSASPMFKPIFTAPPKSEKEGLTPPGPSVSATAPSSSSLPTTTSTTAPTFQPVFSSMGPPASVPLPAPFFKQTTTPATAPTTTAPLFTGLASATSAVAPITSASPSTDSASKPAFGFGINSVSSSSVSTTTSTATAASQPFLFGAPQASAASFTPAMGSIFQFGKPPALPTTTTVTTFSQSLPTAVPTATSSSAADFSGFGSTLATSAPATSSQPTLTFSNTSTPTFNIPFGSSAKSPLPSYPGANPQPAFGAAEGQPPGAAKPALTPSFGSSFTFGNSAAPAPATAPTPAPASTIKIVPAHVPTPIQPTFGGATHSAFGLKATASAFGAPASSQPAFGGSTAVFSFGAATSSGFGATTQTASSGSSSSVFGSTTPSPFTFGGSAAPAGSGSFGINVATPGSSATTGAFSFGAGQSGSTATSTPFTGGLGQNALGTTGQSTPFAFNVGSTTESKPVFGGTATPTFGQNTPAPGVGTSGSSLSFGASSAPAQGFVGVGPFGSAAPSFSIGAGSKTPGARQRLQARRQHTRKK
UniProt Q8NBT0: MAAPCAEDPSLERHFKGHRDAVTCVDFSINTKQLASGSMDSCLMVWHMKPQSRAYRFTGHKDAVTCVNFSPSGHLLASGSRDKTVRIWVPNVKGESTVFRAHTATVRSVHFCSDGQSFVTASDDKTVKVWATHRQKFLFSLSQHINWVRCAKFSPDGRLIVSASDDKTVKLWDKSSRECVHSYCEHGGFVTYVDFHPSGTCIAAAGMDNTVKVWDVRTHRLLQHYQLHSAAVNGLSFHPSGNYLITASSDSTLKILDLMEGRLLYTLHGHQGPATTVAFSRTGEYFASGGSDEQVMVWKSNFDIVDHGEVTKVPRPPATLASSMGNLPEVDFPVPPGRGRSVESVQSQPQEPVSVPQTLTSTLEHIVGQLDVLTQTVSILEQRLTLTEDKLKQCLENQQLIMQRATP
UniProt Q6T4P5: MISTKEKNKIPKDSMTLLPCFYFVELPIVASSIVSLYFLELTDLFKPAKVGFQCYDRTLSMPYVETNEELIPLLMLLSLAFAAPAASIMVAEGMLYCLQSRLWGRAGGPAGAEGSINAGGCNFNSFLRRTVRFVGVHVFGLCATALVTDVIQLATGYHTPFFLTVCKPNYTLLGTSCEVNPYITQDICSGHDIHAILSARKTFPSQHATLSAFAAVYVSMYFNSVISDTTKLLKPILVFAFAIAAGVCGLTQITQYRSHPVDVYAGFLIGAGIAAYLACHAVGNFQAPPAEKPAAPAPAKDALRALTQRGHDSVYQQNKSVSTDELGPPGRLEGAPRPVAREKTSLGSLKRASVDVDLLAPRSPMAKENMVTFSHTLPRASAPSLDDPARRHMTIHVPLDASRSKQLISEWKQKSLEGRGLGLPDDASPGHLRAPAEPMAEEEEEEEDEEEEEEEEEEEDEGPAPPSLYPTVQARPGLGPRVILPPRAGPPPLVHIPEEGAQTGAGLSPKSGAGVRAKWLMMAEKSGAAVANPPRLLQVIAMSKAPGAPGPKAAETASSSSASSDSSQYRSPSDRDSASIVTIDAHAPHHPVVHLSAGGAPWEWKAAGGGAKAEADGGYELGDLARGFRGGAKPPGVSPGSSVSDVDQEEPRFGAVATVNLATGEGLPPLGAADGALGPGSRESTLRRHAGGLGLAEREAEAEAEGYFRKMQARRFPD
UniProt Q8IY26: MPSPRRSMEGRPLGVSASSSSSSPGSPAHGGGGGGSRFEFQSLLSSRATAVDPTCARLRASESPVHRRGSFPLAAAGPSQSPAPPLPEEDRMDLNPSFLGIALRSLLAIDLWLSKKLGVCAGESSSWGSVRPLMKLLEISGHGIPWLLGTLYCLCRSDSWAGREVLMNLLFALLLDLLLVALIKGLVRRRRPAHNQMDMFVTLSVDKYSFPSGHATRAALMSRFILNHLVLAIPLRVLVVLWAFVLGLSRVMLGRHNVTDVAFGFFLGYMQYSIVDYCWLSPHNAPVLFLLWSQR

What was measured:
Experiment in all cases: log2 fold change, soluble protein after heating vs DMSO (PISA); higher = thermal stabilisation; K562 lysate, 10 uM; active = over 0.2 and 3.5 SD of the protein, either way, in both replicates (recomputed)
[1] = compound: C1=CC=C(C=C1)[C@H](COC2=CC3=C(C=C2)NC(=O)N3)NC(=O)C4=CC=CN(C4=O)CC5=CC(=C(C=C5)F)F
Method in brief: (§1)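 Quantification was by TMTpro 16plex LC-MS/MS with equalised channel sums, applied to the supernatant after 21,000xg for 90 min. Samples were crude K562 extract at 1 mg/mL protein in PBS pH 7.4 with 1 mM MgCl2, treated with 10 μM compound for 30 min, heated for 3 min across 48°C-58°C, pooled and brought to 0.5% NP-40 at 4°C. Values are log-two fold changes in thermal stability relative to solvent controls, from duplicates.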

[2] = compound: CC1=C(SC2=C1C(=N[C@H](C3=NN=C(N32)C)CC(=O)N)C4=CC=C(C=C4)Cl)C
Method in brief: as §1

[3] = compound: CC1=C2C(=CC=C1)N=C(N(C2=O)C3=CC=CC=C3C)CN4C=NC5=C(N=CN=C54)N
Method in brief: as §1

[4] = compound: Cc1sc2c(c1C)C(c1ccc(Cl)cc1)=N[C@@H](CC(=O)OC(C)(C)C)c1nnc(C)n1-2
Method in brief: as §1

[5] = compound: c1ccc([C@@H]2C[C@H]2NC2CCNCC2)cc1
Method in brief: as §1

Row | Target | log2 fold change [1] | log2 fold change [2] | log2 fold change [3] | log2 fold change [4] | log2 fold change [5]
1 | POGLUT2 (UniProt Q6UW63) | inactive: -0.009 | inactive: -0.02 | inactive: 0.018 | inactive: 0.015 | inactive: -0.005
2 | PPIB (UniProt P23284) | inactive: 0.015 | inactive: -0.003 | inactive: 0.013 | inactive: 0.007 | inactive: -0.005
3 | PLEKHG2 (UniProt Q9H7P9) |  |  |  | inactive: 0.117 | inactive: 0.128
4 | POLR3H (UniProt Q9Y535) | inactive: 0.045 | inactive: -0.024 | inactive: 0.022 | inactive: -0.013 | inactive: -0.015
5 | POLR2F (UniProt U3KPV3) |  |  |  | inactive: -0.113 | 
6 | PNMT (UniProt P11086) |  |  | inactive: 0.273 |  | 
7 | PLIN3 (UniProt O60664) | inactive: 0.016 | inactive: -0.018 | inactive: -0.007 | inactive: 0.026 | inactive: 0.001
8 | PLXNA3 (UniProt P51805) | inactive: -0.056 | inactive: -0.026 | inactive: 0.17 |  | inactive: -0.37
9 | POTEKP (UniProt Q9BYX7) | inactive: -0.21 | inactive: -0.065 |  | inactive: 0.052 | 
10 | POF1B isoform 1 (UniProt Q8WVV4) |  |  |  | inactive: 0.038 | inactive: -0.218
11 | PNMA8A (UniProt Q86V59) | inactive: -0.43 | inactive: 0.061 |  | inactive: -0.048 | 
12 | PLSCR3 (UniProt Q9NRY6) |  |  | inactive: 0.402 | inactive: 0.21 | inactive: 0.034
13 | POM121C (UniProt A8CG34) | inactive: 0.058 | inactive: 0.042 |  |  | inactive: -0.02
14 | PLXND1 (UniProt Q9Y4D7) | inactive: -0.039 | inactive: 0.082 |  | inactive: 0.029 | 
15 | PML isoform 11 (UniProt P29590) |  |  | inactive: 0.055 | inactive: -0.085 | inactive: -0.061
16 | POLD4 (UniProt Q9HCU8) |  |  | inactive: -0.033 | inactive: -0.098 | 
17 | POGZ (UniProt Q7Z3K3) |  |  | inactive: 0.087 | inactive: -0.119 | inactive: 0.305
18 | PPHLN1 isoform 3 (UniProt Q8NEY8) |  |  | inactive: -0.123 |  | 
19 | PLEKHM1 (UniProt Q9Y4G2) |  |  | inactive: 0.142 |  | 
20 | PLEKHH2 (UniProt E5RGK1) |  |  | inactive: -0.088 | inactive: 0.07 | inactive: -0.061

As entered above.
log2 fold change [3] with POLD4 (UniProt Q9HCU8) reads inactive: -0.033
log2 fold change [2] with POM121C (UniProt A8CG34) reads inactive: 0.042
log2 fold change [2] with POTEKP (UniProt Q9BYX7) reads inactive: -0.065

2 records picked at random from those above, as already listed:
Row | Target | log2 fold change [1] | log2 fold change [2] | log2 fold change [3] | log2 fold change [4] | log2 fold change [5]
7 | PLIN3 (UniProt O60664) | inactive: 0.016 | inactive: -0.018 | inactive: -0.007 | inactive: 0.026 | inactive: 0.001
13 | POM121C (UniProt A8CG34) | inactive: 0.058 | inactive: 0.042 |  |  | inactive: -0.02

Continued.

Row | Target | log2 fold change [1] | log2 fold change [2] | log2 fold change [3] | log2 fold change [4] | log2 fold change [5]
21 | POMGNT2 (UniProt Q8NAT1) |  |  | inactive: -0.186 | inactive: -0.032 | inactive: -0.096
22 | PML (UniProt P29590) | inactive: 0.108 | inactive: -0.019 | inactive: -0.002 | inactive: -0.003 | inactive: -0.045
23 | POLR2J (UniProt P52435) | inactive: 0.075 | inactive: 0.028 |  | inactive: 0.02 | 
24 | PPFIBP2 (UniProt Q8ND30) |  |  |  |  | inactive: 0.342
25 | PLEKHG4 (UniProt Q58EX7) |  |  | inactive: 0.06 | inactive: 0.052 | inactive: 0.017
26 | PLTP (UniProt P55058) |  |  | inactive: 0.168 | inactive: -0.001 | inactive: 0.333
27 | POC1A (UniProt Q8NBT0) |  |  | inactive: -0.079 |  | inactive: -0.177
28 | PLXNB1 (UniProt O43157) |  |  |  | inactive: -0.082 | 
29 | PPHLN1 (UniProt Q8NEY8) |  |  | inactive: 0.028 |  | inactive: -0.047
30 | PLPPR3 isoform 3 (UniProt Q6T4P5) |  |  |  | inactive: 0.288 | 
31 | POLR3C (UniProt Q9BUI4) | inactive: -0.003 | inactive: -0.004 | inactive: -0.033 | inactive: -0.013 | inactive: 0.003
32 | POLR2B (UniProt P30876) | inactive: -0.021 | inactive: 0.024 | inactive: 0.019 | inactive: 0.021 | inactive: 0.013
33 | POT1 (UniProt Q9NUX5) | inactive: -0.038 | inactive: -0.015 | inactive: -0.158 | inactive: 0.07 | inactive: 0.086
34 | PODXL (UniProt O00592) |  |  |  |  | inactive: 0.021
35 | POSTN (UniProt Q15063) | inactive: -0.036 | inactive: 0.064 | inactive: 0.037 |  | inactive: 0.003
36 | PLPP6 (UniProt Q8IY26) |  |  | inactive: -0.036 | inactive: -0.014 | inactive: 0.059
37 | POC1B (UniProt Q8TC44) |  |  | inactive: 0.036 | inactive: 0.02 | 
38 | PLEKHJ1 (UniProt Q9NW61) |  |  |  |  | inactive: 0.12
39 | POMT1 (UniProt Q9Y6A1) |  |  |  | inactive: 0.017 | 
40 | PNPLA4 (UniProt P41247) |  |  | inactive: -0.009 | inactive: 0.201 | inactive: -0.019
